In publication PMC6100056, “Antitumor Effects and Delivery Profiles of Menahydroquinone-4 Prodrugs with Ionic or Nonionic Promoiety to Hepatocellular Carcinoma Cells” (Molecules : A Journal of Synthetic Chemistry and Natural …, 2018):

Assay: Regeneration (hydrolysis) of MKH-ester derivatives to MKH in S9 fractions
Format: in vitro ADME
Description: To assess the regeneration to the parental form, MKH, from the MKH-ester derivatives by an esterase of HCC, MKH-ACT, MKH-DMG and MKH-SUC were incubated at 37 °C in S9 fractions obtained from PLC/PRF/5 or SK-Hep-1 cells. The velocities of MK-4 generated in the S9 fractions were plotted as the amount of MKH, because MKH is rapidly oxidized to MK-4 during drug extraction and measurement. The regeneration versus […] profile was fitted by the Michaelis--Menten model (shown in Figure 4) and the kinetic parameters were calculated (Table 2). The regeneration velocities of MKH-ACT in both PLC/PRF/5 and SK-Hep-1 cells reached a plateau at about 3 μM MKH-ACT. MKH-DMG reached a plateau in PLC/PRF/5 and SK-Hep-1 cells at 25 μM and about 6 μM MKH-DMG, respectively. MKH-SUC reached a plateau in PLC/PRF/5 and SK-Hep-1 cells at about 0.6 μM and about 1.5 μM MKH-SUC, respectively. The level scale of MKH regeneration from MKH-SUC was about 100-fold higher than those of MKH-ACT and MKH-DMG.
The hydrolysis of the esters was performed at 37 °C in S9 fractions of PLC/PRF/5 and SK-Hep-1 cells after ultrasonic homogenization and centrifugation (10,000× g, 1 h) in isotonic phosphate buffer (pH 7.4). Stock solutions of each ester were made in the same manner as the cell viability assay, and the solutions were diluted with 0.1% w/v albumin in PBS. The enzymatic reactions were initiated by adding 5 μL of the diluted of each ester into amber test tubes containing 95 μL of preheated S9 fractions. A BCA protein assay (PIERCE/Thermo Fisher Scientific Inc., Waltham, MA, USA) was used to determine protein concentrations, and the final S9 concentration was adjusted to 1.0 mg of protein/mL in PBS. The solutions were incubated at 37 °C, and at appropriate times, the aliquots from the reaction were combined with an equal volume of methanol and three times volume of n-hexane. The samples were vortexed for 2 min and centrifuged at 1750× g for 10 min. The upper layer (n-hexane) was collected and evaporated under nitrogen. The residue was reconstituted with 100 μL of methanol, sonicated for 10 s and subjected to LC-MS/MS analysis as described below.
The LC-MS/MS analysis was performed with the same instrument under the same conditions as in an earlier report, except for the following MS/MS-multiple reaction monitoring (MRM) setting and retention times: MRM: m/z 532→171, [M + H]^+ MKH-ACT adduct; m/z 664→187, [M + NH4]^+ MKH-SUC adduct; retention times: MKH-ACT, 1.7 min; and MKH-SUC, 1.1 min.
For the determination of Km and Vmax for the uptake and enzymatic activation of MKH-esters, concentration-dependency data were fit to the Michaelis--Menten equation:V = Vmax·[S]/(Km + [S])(1) where V represents the velocity of action between the substrate and transportation/enzymatic reaction, [S] refers to the concentration of the substrate and Km is defined as the concentration of substrate at the half-maximal rate of action (Vmax). Data were analyzed by GraphPad Prism (GraphPad Software).

SMILES	Concentration at which regeneration velocity reached a plateau (S9 of PLC/PRF/5 cells)	Concentration at which regeneration velocity reached a plateau (S9 of SK-Hep-1 cells)
CC(C)=CCC/C(C)=C/CC/C(C)=C/CC/C(C)=C/Cc1c(C)c(OC(=O)CN(C)C)c2ccccc2c1OC(=O)CN(C)C [MKH-DMG, Menahydroquinone-4 1,4-bis-N,N-dimethylglycinate hydrochloride]	25 µM	about 6 μM
CC(=O)Oc1c(C)c(C/C=C(\C)CC/C=C(\C)CC/C=C(\C)CCC=C(C)C)c(OC(C)=O)c2ccccc12 [MKH-ACT, Menahydroquinone-4 1,4-bis acetate]	about 3 μM	about 3 μM
CC(C)=CCC/C(C)=C/CC/C(C)=C/CC/C(C)=C/Cc1c(C)c(OC(=O)CCC(=O)O)c2ccccc2c1OC(=O)CCC(=O)O [MKH-SUC, Menahydroquinone-4 1,4-bis hemisuccinate]	about 0.6 μM	about 1.5 μM

Where a name gives a salt, the structure may show the parent alone.
